Literature values in patent publication US20040128703A1, “Methods and compositions for the generation of humanized mice” (priority 2002, published 2004).
For at least one compound, name, drawing or mass did not settle the structure.

System: P-glycoprotein

## CO[C@H]1/C=C/O[C@@]2(C)Oc3c(C)c(O)c4c(O)c(c(/C=N/N5CCN(C)CC5)c(O)c4c3C2=O)NC(=O)/C(C)=C\C=C\[C@H](C)[C@H](O)[C@@H](C)[C@@H](O)[C@@H](C)[C@H](OC(C)=O)[C@@H]1C [rifampicin]
  P-glycoprotein induction: induced
